Data taken from PubChem BioAssay AID588497 (NMMLSC, 2011).
Hit rate of the full screen: of about 360,000 compounds, about 780 (0.22%) were called active. The shares of active, inactive and inconclusive entries below differ from those in the screen. Cut-off read from the data, not from the text of the source: active = inhibition above about 35% (passing the limit was not always enough); inconclusive = no clear call, values can overlap the other calls.

test system: Botulinum neurotoxin type F light chain protease (Clostridium botulinum); test: BoNT/F light chain protease inhibitors, primary screen, biochemical, flow cytometry, MLPCN library (AID 588497); settings: Multiplex microsphere protease cleavage assay, at 10 µM, hits give high values; note: plate controls were buffer without enzyme for full effect and enzyme alone for no effect

| Compound | inhibition |
| --- | --- |
| COc1ccc(OC(=O)c2cc3cc(Cl)ccc3oc2=O)cc1 | inconclusive: -9.1% |
| Cc1nnc(SCc2cccc3ccccc23)s1 | inconclusive: -29.4% |
| CC1CCCC(NC(=O)c2cc(S(=O)(=O)N3CCCCC3)c[nH]2)C1C (centres undefined) | inactive: -5.9% |
| COc1cc2c(cc1OC)C(C)N(CC(=O)Nc1ccc(C)c(S(=O)(=O)N3CCOCC3)c1)CC2 (centres undefined) | inconclusive: 25.5% |
| O=C(Nc1ccccc1F)C(c1ccccc1)c1ccccc1 | inconclusive: 82.1% |
| O=C(Cn1nnc(-c2cccs2)n1)NNC(=O)c1ccccc1Cl | inconclusive: 22.4% |
| CN(C)c1nc(-c2ccccn2)nnc1-c1ccccc1 | inactive: -14.4% |
| Cc1ccccc1NC(=O)CC(=O)c1ccccc1 | inconclusive: -31.1% |
| Cc1c(C(=O)Nc2cccc(F)c2)cnn1-c1ccccc1 | inactive: 29% |
| O=[N+]([O-])c1ccc(Nc2ccccc2)c2nonc12 | inactive: 11.3% |
| O=C(O)c1cc(Br)ccc1NS(=O)(=O)c1cccc2nsnc12 | inconclusive: -22.5% |
| COc1ccc(-c2cc(C(=O)Nc3ccc(C)c(N)c3)c3ccccc3n2)cc1 | inconclusive: -9.6% |
| Cn1cccc1/C=N/N1CCN(Cc2ccccc2)CC1 | inconclusive: 60.9% |
| COc1ccc(OCCn2ccnc2)cc1 | inactive: -4.8% |
| CNC(=O)c1ccc(-c2sc3nc(N4CCOCC4)c4c(c3c2N)CC(C)(C)OC4)o1 | inactive: -18.5% |
| Cc1c(C(=O)NCCC#N)sc(=O)n1Cc1ccc(C(=O)N(C)C)cc1 | inactive: 3.7% |
| COc1ccc(-c2cc(C(=O)NC3CCCC3)c3ccccc3n2)cc1 | inconclusive: -12.2% |
| Cc1ccc(OCC(=O)Nc2ccc(S(=O)(=O)N3CCN(C)CC3)cc2)cc1 | inconclusive: -20.4% |
| CC1=C/C(=C(\c2cc(C)c(O)c(Br)c2)c2ccccc2S(=O)(=O)O)C=C(Br)C1=O | inconclusive: 1.1% |
| O=C(Nc1cccc(C(=O)N2CCOCC2)c1)C1CC1 | inactive: -5.9% |

| Compound | inhibition |
| --- | --- |
| N/C(=N\OC(=O)c1ccc(Cl)cc1)c1[nH]ncc1Br | inconclusive: 71.1% |
| CCC(CC)C(=O)N=C1SC2CS(=O)(=O)CC2N1CCc1ccc(OC)c(OC)c1 (centres undefined) | inconclusive: 64.4% |
| Cc1cc(C(=O)Nc2ccccc2C)c2ccccc2n1 | inconclusive: 18.4% |
| CCOC(=O)C(=O)NCC(c1cccs1)S(=O)(=O)c1ccc(F)cc1 (centres undefined) | inconclusive: -0.5% |
| CCN(CC)C(=O)Cn1c(=O)n(CC(=O)N2CCCCC2)c(=O)c2sccc21 | inconclusive: 5% |
| CCOC(=O)/C(C#N)=N/Nc1ccc(S(=O)(=O)Nc2cc(OC)nc(OC)n2)cc1 | inconclusive: -37.2% |
| O=C(Cn1c(C(F)(F)F)nc2ccccc21)N1CCCC1 | inconclusive: 3.6% |
| Cc1cccc(NC(=S)N2CCCN(c3ncccc3[N+](=O)[O-])CC2)c1 | inconclusive: -9.8% |
| NC(=O)C[C@H](NC(=O)c1ccc(Cl)cc1)C(=O)OCc1ccccc1 | inactive: 10.1% |
| N#C/C(=C\c1ccccc1[N+](=O)[O-])C(=O)NCc1ccccc1 | inconclusive: -23.1% |
| S=c1[nH]nc(-c2ccc(Cl)cc2)n1/N=C/C=C/c1ccco1 | inconclusive: -83.4% |
| Cc1ccc(-n2nnnc2SCC(=O)NCC2CCCO2)cc1C (centres undefined) | inactive: 13% |
| CC(=O)N(CCP(=O)(c1ccccc1)c1ccccc1)Cc1ccco1 | inconclusive: -1.8% |
| COc1cccc(C2Nc3ccccc3C(=O)N2Cc2ccccc2)c1 (centres undefined) | inconclusive: 3.6% |
| COc1ccc(CCN2CC(C(=O)NCc3nc4ccccc4n3C)CCC2=O)cc1 (centres undefined) | inactive: 3.1% |
| COc1ccccc1CNC(=O)C(CCSC)NS(=O)(=O)c1ccc2c(c1)oc(=O)n2C (centres undefined) | inactive: -6% |
| O=c1[nH][nH]c2c1C(c1ccc(Cl)c(Cl)c1)OC(CCc1ccccc1)C2 (centres undefined) | inactive: -5.1% |
| CCCOc1ccc(N2C(=O)CC(SCC(N)C(=O)OCC)C2=O)cc1 (centres undefined) | inconclusive: 31.8% |
| COc1ccc2cc(CCOC3CCCCO3)ncc2c1 (centres undefined) | inactive: -1.5% |
| O=C(O)CSCC(=O)N1CCN(S(=O)(=O)c2cc(Cl)cc(Cl)c2)CC1 | inconclusive: -4% |

| Compound | inhibition |
| --- | --- |
| Cc1ccccc1/C=N/n1c(-c2ccccn2)n[nH]c1=S | inconclusive: -27.6% |
| O=C(Oc1cccc2c(O)cccc12)c1ccccc1Cl | inconclusive: 24% |
| O=C1CCC([N+](=O)[O-])C(c2ccc(C(F)(F)F)cc2)N1 (centres undefined) | inconclusive: -48.9% |
| COC(=O)c1c(NC(=O)C(Cl)Cl)sc2c1C(C(=O)OC)CC2 (centres undefined) | inconclusive: -109% |
| COc1ccc(/C=C2\SC(=O)N(CC(=O)NCCC(C)C)C2=O)cc1OC | active: 43% |
| CCCCN(C(=O)c1sc2nc3n(c(=O)c2c1C)CCC3)c1c(N)n(CC(C)C)c(=O)[nH]c1=O | inactive: -7% |
| Cc1cccc(Nc2nc(N)c([N+](=O)[O-])c(N3CC(C)CC(C)C3)n2)c1 (centres undefined) | inactive: -0.5% |
| CC1(C)Cc2cccc(C(=O)NC3CCN(Cc4ccccc4)CC3)c2O1 | inactive: -6.7% |
| Cc1cc2c(NC(=O)Nc3ccc(C(C)(C)C)cc3)cccc2nn1 | inconclusive: 172% |
| CC(=O)c1ccc(N2CCN(S(=O)(=O)c3cccc4nonc34)CC2)cc1 | inconclusive: -76% |
| CC1(C)CC(=O)C=C(N2CCCC2)C1 | active: 43.8% |
| Oc1[nH]c(N=C2N=c3ccccc3=N2)c2ccccc12 | active: 111% |
| CCc1cccc(NS(=O)(=O)c2c(C)n[nH]c2C)c1 | inconclusive: -14.3% |
| COc1ccc(CC(=O)NC(C)c2ccc3ccccc3c2)cc1 (centres undefined) | inactive: -22.5% |
| CNc1cc(-c2cccc(OC)c2F)nc2ccnn12 | inactive: -1.5% |
| Cc1c(C)n(C(=O)CSc2nccn2C)c2ccccc12 | inconclusive: 12.6% |
| COc1c(C)oc2cc(O)ccc2c1=O | inactive: 2.3% |
| CCOc1cc(CNn2cnnc2)cc(Br)c1OCC(=O)NC1CCCCC1 | inconclusive: 19.6% |
| Cc1ccc(NC(=O)C2CCN(S(C)(=O)=O)CC2)c(C)c1 | inconclusive: -5.9% |

In another format: entries from further up
Compound | inhibition
O=C(Oc1cccc2c(O)cccc12)c1ccccc1Cl | inconclusive: 24%
O=C1CCC([N+](=O)[O-])C(c2ccc(C(F)(F)F)cc2)N1 (centres undefined) | inconclusive: -48.9%
COC(=O)c1c(NC(=O)C(Cl)Cl)sc2c1C(C(=O)OC)CC2 (centres undefined) | inconclusive: -109%
COc1ccc(/C=C2\SC(=O)N(CC(=O)NCCC(C)C)C2=O)cc1OC | active: 43%
CCCCN(C(=O)c1sc2nc3n(c(=O)c2c1C)CCC3)c1c(N)n(CC(C)C)c(=O)[nH]c1=O | inactive: -7%
Cc1cccc(Nc2nc(N)c([N+](=O)[O-])c(N3CC(C)CC(C)C3)n2)c1 (centres undefined) | inactive: -0.5%
CC1(C)Cc2cccc(C(=O)NC3CCN(Cc4ccccc4)CC3)c2O1 | inactive: -6.7%
Cc1cc2c(NC(=O)Nc3ccc(C(C)(C)C)cc3)cccc2nn1 | inconclusive: 172%
CC(=O)c1ccc(N2CCN(S(=O)(=O)c3cccc4nonc34)CC2)cc1 | inconclusive: -76%
CC1(C)CC(=O)C=C(N2CCCC2)C1 | active: 43.8%
Oc1[nH]c(N=C2N=c3ccccc3=N2)c2ccccc12 | active: 111%
